Measurements reported in PubChem BioAssay AID1671195 (Yale University, 2021).
Test: 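Regulators of LDL receptor activity judged by labelled LDL uptake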 (primary screen). Cells: human Huh7 hepatoma cells. Knock-down reagent: siRNA pool against human genes, 18 nM. Time to read-out: about 2 to 2.5 days of knockdown, then 8 h LDL uptake. Challenge: DiI-labelled LDL at 30 µg/ml for 8 h, in lipoprotein-deficient serum medium. Read-out: 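Fluorescent LDL signal imaged in cells, scaled to the plate median, robust z-score for each replicate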. Direction: robust z-score: higher = more LDL uptake after knockdown. Hit rule: 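a gene counts as active if at least two replicate z-scores exceed ±2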.
This is one part, drawn at random, of about 22,000 deposited reagents. In the full data, about 1,510 (6.9%) were called active. 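Active includes knockdowns raising or lowering LDL uptake; positive z-scores mean more uptake, negative mean less.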 No sequences are given here.

MKRN1
- robust z-score, replicate 1: -0.121
- robust z-score, replicate 2: -0.313
- robust z-score, replicate 3: 0.0891
- call: inactive

LOC401855 (retired record)
- robust z-score, replicate 1: -1.05
- robust z-score, replicate 2: -1.09
- robust z-score, replicate 3: -1.38
- call: inactive

NTMT1
- robust z-score, replicate 1: -1.13
- robust z-score, replicate 2: -1.28
- robust z-score, replicate 3: -1.11
- call: inactive

KBTBD8
- robust z-score, replicate 1: -0.223
- robust z-score, replicate 2: -0.0142
- robust z-score, replicate 3: -0.208
- call: inactive

CHN2
- robust z-score, replicate 1: -0.99
- robust z-score, replicate 2: -0.781
- robust z-score, replicate 3: -0.475
- call: inactive

BCL2L1
- robust z-score, replicate 1: -0.292
- robust z-score, replicate 2: -0.462
- robust z-score, replicate 3: -1.2
- call: inactive

ERN2
- robust z-score, replicate 1: -0.0795
- robust z-score, replicate 2: 0.414
- robust z-score, replicate 3: -0.0836
- call: inactive

LINC02909
- robust z-score, replicate 1: -0.528
- robust z-score, replicate 2: -0.697
- robust z-score, replicate 3: 0.427
- call: inactive

SPATA1
- robust z-score, replicate 1: 3.12
- robust z-score, replicate 2: 3.09
- robust z-score, replicate 3: 3.25
- call: active

ZNF257
- robust z-score, replicate 1: 1.88
- robust z-score, replicate 2: 1.09
- robust z-score, replicate 3: 1.58
- call: inactive

CYP4F3
- robust z-score, replicate 1: 0.233
- robust z-score, replicate 2: 1.08
- robust z-score, replicate 3: 0.789
- call: inactive

JAKMIP3
- robust z-score, replicate 1: -0.791
- robust z-score, replicate 2: -0.429
- robust z-score, replicate 3: -0.641
- call: inactive

FAM204A
- robust z-score, replicate 1: 4.5
- robust z-score, replicate 2: 2.84
- robust z-score, replicate 3: 1.65
- call: active

SACK1A
- robust z-score, replicate 1: -1.04
- robust z-score, replicate 2: -0.753
- robust z-score, replicate 3: -0.591
- call: inactive

FPR1
- robust z-score, replicate 1: -0.743
- robust z-score, replicate 2: 0.279
- robust z-score, replicate 3: -0.269
- call: inactive

CD151
- robust z-score, replicate 1: -1.47
- robust z-score, replicate 2: -0.68
- robust z-score, replicate 3: -1.38
- call: inactive

PUSL1
- robust z-score, replicate 1: 0.194
- robust z-score, replicate 2: 0.622
- robust z-score, replicate 3: -0.291
- call: inactive

LOC400781 (retired record)
- robust z-score, replicate 1: 0.619
- robust z-score, replicate 2: 0.537
- robust z-score, replicate 3: 0.539
- call: inactive

GLRA4
- robust z-score, replicate 1: 1.46
- robust z-score, replicate 2: 0.887
- robust z-score, replicate 3: 0.563
- call: inactive

DDX43
- robust z-score, replicate 1: 0.553
- robust z-score, replicate 2: -0.998
- robust z-score, replicate 3: -0.692
- call: inactive

LOC440236 (retired record)
- robust z-score, replicate 1: -0.718
- robust z-score, replicate 2: -0.5
- robust z-score, replicate 3: -0.552
- call: inactive

MBD1
- robust z-score, replicate 1: 2.54
- robust z-score, replicate 2: 1.34
- robust z-score, replicate 3: 1.42
- call: inactive

SIGLECL1
- robust z-score, replicate 1: 0.0423
- robust z-score, replicate 2: -0.00166
- robust z-score, replicate 3: 0.139
- call: inactive

RTN4IP1
- robust z-score, replicate 1: 0.811
- robust z-score, replicate 2: 0.558
- robust z-score, replicate 3: 0.168
- call: inactive

Laid out differently: results already given
PUSL1: robust z-score, replicate 1 = 0.194; robust z-score, replicate 2 = 0.622; robust z-score, replicate 3 = -0.291; call = inactive
LOC400781 (retired record): robust z-score, replicate 1 = 0.619; robust z-score, replicate 2 = 0.537; robust z-score, replicate 3 = 0.539; call = inactive
GLRA4: robust z-score, replicate 1 = 1.46; robust z-score, replicate 2 = 0.887; robust z-score, replicate 3 = 0.563; call = inactive
